From patent publication US20020028208A1 (TEXAS A AND M UNIVERSITY SYSTEM, published 2002)
No constants are given. Whether binding was seen depends on the method and setting. Some entries that bind do so weakly or less than the wild type.

Tests used:
[1] = molecular target: T1, feline CD28, surface expressed on CD28-pSI transfected COS-7 cells (feline) (UniProt O02757); assay: cell-cell adhesion assay with transfected COS-7 cells
T1 sequence: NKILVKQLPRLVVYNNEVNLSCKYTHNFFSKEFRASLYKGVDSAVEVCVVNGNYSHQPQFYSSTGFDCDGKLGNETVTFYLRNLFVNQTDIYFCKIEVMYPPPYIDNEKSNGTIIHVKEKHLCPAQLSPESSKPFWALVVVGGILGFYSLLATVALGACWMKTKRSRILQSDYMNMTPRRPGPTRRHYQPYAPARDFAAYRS

[2] = molecular target: T1, feline CD28, surface expressed on CD28-pSI transfected COS-7 cells (feline); assay: cell-cell adhesion assay together with the competitive binding assay; transfected COS-7 cells
[3] = molecular target: T1, feline CD28, surface expressed on CD28-pSI transfected COS-7 cells (feline); assay: cell-cell adhesion assay with transfected COS-7 cells; retention of fluorescently labeled cells
[4] = molecular target: T1, feline CD28, surface expressed on CD28-pSI transfected COS-7 cells (feline); assay: cell-cell adhesion assay: calcein-labeled CD80-pSI COS-7 cells on adherent CD28-pSI COS-7 cells against mock transfected cells; microplate fluorimeter

binding [1]: binds | binding [2]: binds | binding [3]: binds | binding [4]: binds
B1: feline CD80 (B7-1)-TAMU, surface expressed on feCD80/pSI transfected COS-7 cells (ligand)
chain: ASLFYFCSGIIQVNKTVEEVAVLSCDYNISTKELTEIRIYWQKDDEMVLAVMSGKVQVWPKYKNRTFTDVTDNHSIVIMALRLSDNGKYTCIIQKIEKGSYKVKHLTSVMLLVRADFPVPSITDLGNPSHNIKRIMCLTSGGFPKPHLSWLENEEELNAINTTVSQDPETELYTISSELDFNMTNNHSFLCLVKYGNLLVSQIFNWQKSEPQPSNNQLWIIILSSVVSGIVVITALTLRCLVHRPAARWRQREMGRARKWKRSHLST
notes: also called CD80-pSI transfected COS cells
